Here are results for two substances from article PMC10602077.

Protein sequences, listed by entry. Tags and fused reporters are not part of them.
UniProt Q13216: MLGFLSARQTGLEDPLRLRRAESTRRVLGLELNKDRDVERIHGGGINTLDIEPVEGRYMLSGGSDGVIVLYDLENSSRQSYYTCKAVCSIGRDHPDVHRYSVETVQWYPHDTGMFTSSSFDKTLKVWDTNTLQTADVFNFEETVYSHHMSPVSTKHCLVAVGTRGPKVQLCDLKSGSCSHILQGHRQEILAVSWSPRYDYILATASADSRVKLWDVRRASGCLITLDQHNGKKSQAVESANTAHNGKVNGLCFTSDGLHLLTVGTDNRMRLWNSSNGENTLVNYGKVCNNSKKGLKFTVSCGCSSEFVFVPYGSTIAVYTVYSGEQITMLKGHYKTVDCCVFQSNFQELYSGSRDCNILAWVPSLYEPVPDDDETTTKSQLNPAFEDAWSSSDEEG
UniProt Q13619: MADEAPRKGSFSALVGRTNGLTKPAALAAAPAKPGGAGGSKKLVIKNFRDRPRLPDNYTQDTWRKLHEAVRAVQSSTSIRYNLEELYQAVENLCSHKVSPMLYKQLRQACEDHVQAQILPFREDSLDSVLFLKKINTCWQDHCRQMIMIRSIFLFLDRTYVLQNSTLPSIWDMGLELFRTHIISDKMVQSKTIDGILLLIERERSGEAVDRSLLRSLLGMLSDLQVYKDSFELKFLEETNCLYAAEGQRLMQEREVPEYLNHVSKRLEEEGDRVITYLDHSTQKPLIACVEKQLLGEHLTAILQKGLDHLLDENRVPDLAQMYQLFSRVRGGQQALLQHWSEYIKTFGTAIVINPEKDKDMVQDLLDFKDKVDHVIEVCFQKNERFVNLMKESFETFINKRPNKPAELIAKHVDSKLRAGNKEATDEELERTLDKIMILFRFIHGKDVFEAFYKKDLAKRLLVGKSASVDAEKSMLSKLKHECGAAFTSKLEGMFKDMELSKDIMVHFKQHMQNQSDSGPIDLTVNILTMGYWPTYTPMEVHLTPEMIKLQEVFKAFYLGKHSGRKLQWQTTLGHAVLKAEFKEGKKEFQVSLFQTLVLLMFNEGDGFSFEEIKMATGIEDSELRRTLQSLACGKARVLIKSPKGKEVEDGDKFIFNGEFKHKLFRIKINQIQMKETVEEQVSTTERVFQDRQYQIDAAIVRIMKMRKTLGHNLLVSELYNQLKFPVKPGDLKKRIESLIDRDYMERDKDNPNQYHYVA
UniProt Q92905: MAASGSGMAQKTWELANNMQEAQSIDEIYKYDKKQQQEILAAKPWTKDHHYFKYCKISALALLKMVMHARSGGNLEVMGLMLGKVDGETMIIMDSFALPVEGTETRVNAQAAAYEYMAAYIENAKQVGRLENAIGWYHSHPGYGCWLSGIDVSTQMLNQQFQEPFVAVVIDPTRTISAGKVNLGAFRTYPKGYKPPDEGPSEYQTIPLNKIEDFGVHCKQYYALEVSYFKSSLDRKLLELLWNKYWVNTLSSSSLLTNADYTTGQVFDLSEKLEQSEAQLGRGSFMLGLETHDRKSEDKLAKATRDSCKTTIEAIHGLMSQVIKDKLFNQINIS

These are yes or no findings as the source states them, for the method shown. In cells and extracts the contact can be indirect. Some entries that bind do so weakly or less than the wild type.

One assay deals with CSA-GFP (UniProt Q13216). Nature of the assay: co-IP; GFP-Trap beads, 90 min at 4 °C, lysate in 30 mM HEPES pH 7.5, 130 mM NaCl, 1 mM MgCl2, 0.5% Triton X-100, sonicated, Benzonase; immunoblot; cells mock treated or UV irradiated (also DDA1 KO cells, 1 and 10 h after 10 J.m^-2). (Immunoblotting shows a protein as a band on a membrane.)
Assay [1] concerns the target CSA-mClover (human (endogenous in HCT116)) (UniProt Q13216). The assay is described as above.

In the case of CUL4A (from UniProt Q13619 1-759), the binding result (in the assay with CSA-GFP; in assay [1]) was “binds” each time.

As to CSN5 (from UniProt Q92905 1-334), the binding result (with CSA-GFP; in assay [1]) was “binds” throughout.
